In paper PMC11649813 one finds binding data, which are given here for 1 substance.

Amino acid sequences for entries named in this document (tags omitted).
UniProt Q9H4A6: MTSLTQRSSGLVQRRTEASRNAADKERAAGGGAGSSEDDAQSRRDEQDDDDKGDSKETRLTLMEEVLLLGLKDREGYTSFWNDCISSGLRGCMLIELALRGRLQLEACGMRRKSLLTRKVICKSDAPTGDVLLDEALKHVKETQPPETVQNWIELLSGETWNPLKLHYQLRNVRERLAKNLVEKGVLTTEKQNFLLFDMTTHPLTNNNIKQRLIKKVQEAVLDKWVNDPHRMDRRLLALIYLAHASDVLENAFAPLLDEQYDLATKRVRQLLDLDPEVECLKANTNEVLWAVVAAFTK
UniProt P53618: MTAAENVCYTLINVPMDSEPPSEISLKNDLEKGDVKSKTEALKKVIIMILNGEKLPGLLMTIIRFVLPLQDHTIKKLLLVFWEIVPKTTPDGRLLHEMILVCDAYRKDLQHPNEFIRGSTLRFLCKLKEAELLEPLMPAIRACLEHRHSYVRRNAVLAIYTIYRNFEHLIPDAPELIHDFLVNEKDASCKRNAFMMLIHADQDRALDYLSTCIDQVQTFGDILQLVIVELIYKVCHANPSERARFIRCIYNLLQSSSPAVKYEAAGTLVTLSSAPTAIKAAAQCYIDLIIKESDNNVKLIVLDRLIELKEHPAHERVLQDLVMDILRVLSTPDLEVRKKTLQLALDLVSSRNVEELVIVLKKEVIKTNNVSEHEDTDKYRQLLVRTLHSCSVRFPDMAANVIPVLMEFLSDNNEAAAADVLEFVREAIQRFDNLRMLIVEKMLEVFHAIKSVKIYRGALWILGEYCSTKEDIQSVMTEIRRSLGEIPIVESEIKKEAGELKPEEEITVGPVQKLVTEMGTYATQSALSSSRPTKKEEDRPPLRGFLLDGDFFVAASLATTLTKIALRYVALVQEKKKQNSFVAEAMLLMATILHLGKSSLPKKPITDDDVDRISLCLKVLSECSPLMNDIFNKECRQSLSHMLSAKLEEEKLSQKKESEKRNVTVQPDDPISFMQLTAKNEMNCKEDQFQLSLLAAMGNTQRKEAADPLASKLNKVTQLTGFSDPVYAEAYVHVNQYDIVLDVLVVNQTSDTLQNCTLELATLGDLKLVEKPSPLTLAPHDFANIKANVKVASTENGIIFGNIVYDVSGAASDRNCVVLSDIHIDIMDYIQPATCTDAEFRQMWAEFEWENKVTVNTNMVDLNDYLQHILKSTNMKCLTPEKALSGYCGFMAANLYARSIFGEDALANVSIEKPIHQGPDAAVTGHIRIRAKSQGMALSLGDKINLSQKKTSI

No constants are given. Whether binding was seen depends on the method and setting. Binding seen in cells or lysates may run through a third protein. Some binding calls cover weakened binding; strength is not graded here.

For this assay, the target named is GOLPH3 (overexpressed, untagged) (human) (UniProt Q9H4A6). Nature of the assay: co-IP; WT HEK293 transfectants lysed in 50 mM Tris pH 7.6, 150 mM NaCl, 2 mM EDTA, 0.5% Igepal CA-630; GOLPH3 immunoprecipitated overnight at 4 °C with anti-GOLPH3 (19112-1-AP or ab98023) and Protein A Dynabeads; immunoblot. For orientation: Immunoblotting shows a protein as a band on a membrane.

In the case of “cell-endogenous COPB, a subunit of the COPI coatomer (from UniProt P53618 1-953)”, the binding result is recorded as “binds”.
